{"source": "PubChem BioAssay AID1259308 (NCATS, 2017)", "assay": "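Candidate targets for better recombinant protein yield in mammalian cells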 (primary screen)", "cells": "human HEK293 embryonic kidney cells stably expressing firefly luciferase (HEK-CMV-Luc2-Hygro)", "reagents": "single siRNA against human genes, 0.8 pmol siRNA per well", "timing": "72 h", "measurement": "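Reporter luminescence and viable-cell signal on separate replicate plates, given as percent of non-targeting control and median/MAD z-scores, plus per-cell luciferase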", "direction": "total luciferase, z-score: higher = more reporter protein produced", "hit rule": "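Active when the median/MAD z-score for overall luciferase is greater than 3; a gene was taken forward for validation with new siRNAs if at least two of its three siRNAs passed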", "calls": "active = raised luciferase; inactive = no rise", "note": "The deposit covers about 59,000 reagents; this is a random part of them. About 1,510 of them (2.6%) count as active. 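Calls use total luciferase alone and ignore viability, so some active siRNAs may act by altering cell number.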 Further read-outs or replicates are left out here."}
{"Target gene": "NABP2", "PubChem SID": "SID160748514", "total luciferase, z-score": -0.472, "activity call": "inactive"}
{"Target gene": "NABP2", "PubChem SID": "SID160748515", "total luciferase, z-score": 0.55, "activity call": "inactive"}
{"Target gene": "NABP2", "PubChem SID": "SID160748516", "total luciferase, z-score": -1.13, "activity call": "inactive"}
{"Target gene": "BET1", "PubChem SID": "SID160728069", "total luciferase, z-score": 0.0298, "activity call": "inactive"}
{"Target gene": "BET1", "PubChem SID": "SID160728070", "total luciferase, z-score": 0.775, "activity call": "inactive"}
{"Target gene": "BET1", "PubChem SID": "SID160728071", "total luciferase, z-score": -0.641, "activity call": "inactive"}
{"Target gene": "RPL23AP74", "PubChem SID": "SID160734579", "total luciferase, z-score": -0.787, "activity call": "inactive"}
{"Target gene": "RPL23AP74", "PubChem SID": "SID160772970", "total luciferase, z-score": -0.169, "activity call": "inactive"}
{"Target gene": "RPL23AP74", "PubChem SID": "SID160772971", "total luciferase, z-score": -0.399, "activity call": "inactive"}
{"Target gene": "SPPL2B", "PubChem SID": "SID160745323", "total luciferase, z-score": -1.13, "activity call": "inactive"}
{"Target gene": "SPPL2B", "PubChem SID": "SID160745324", "total luciferase, z-score": -0.281, "activity call": "inactive"}
{"Target gene": "SPPL2B", "PubChem SID": "SID160745325", "total luciferase, z-score": 0.483, "activity call": "inactive"}
{"Target gene": "GLYAT", "PubChem SID": "SID160721612", "total luciferase, z-score": -2.58, "activity call": "inactive"}
{"Target gene": "GLYAT", "PubChem SID": "SID160721719", "total luciferase, z-score": 0.0455, "activity call": "inactive"}
{"Target gene": "GLYAT", "PubChem SID": "SID160730419", "total luciferase, z-score": 0.234, "activity call": "inactive"}
{"Target gene": "KIF1C", "PubChem SID": "SID160738145", "total luciferase, z-score": 0.129, "activity call": "inactive"}
{"Target gene": "KIF1C", "PubChem SID": "SID160738249", "total luciferase, z-score": 1.54, "activity call": "inactive"}
{"Target gene": "KIF1C", "PubChem SID": "SID160738351", "total luciferase, z-score": -0.259, "activity call": "inactive"}
{"Target gene": "RBFOX2", "PubChem SID": "SID160736515", "total luciferase, z-score": -2.36, "activity call": "inactive"}
{"Target gene": "RBFOX2", "PubChem SID": "SID160736516", "total luciferase, z-score": -1.44, "activity call": "inactive"}
{"Target gene": "RBFOX2", "PubChem SID": "SID160736517", "total luciferase, z-score": 0.917, "activity call": "inactive"}

Entries above whose gene name begins with G or g:
{"Target gene": "GLYAT", "PubChem SID": "SID160721612", "total luciferase, z-score": -2.58, "activity call": "inactive"}
{"Target gene": "GLYAT", "PubChem SID": "SID160721719", "total luciferase, z-score": 0.0455, "activity call": "inactive"}
{"Target gene": "GLYAT", "PubChem SID": "SID160730419", "total luciferase, z-score": 0.234, "activity call": "inactive"}

The listing continues.
{"Target gene": "S100A11P1", "PubChem SID": "SID160734595", "total luciferase, z-score": 0.158, "activity call": "inactive"}
{"Target gene": "S100A11P1", "PubChem SID": "SID160773029", "total luciferase, z-score": 1.95, "activity call": "inactive"}
{"Target gene": "S100A11P1", "PubChem SID": "SID160773030", "total luciferase, z-score": -1.12, "activity call": "inactive"}
{"Target gene": "PTK2", "PubChem SID": "SID160715334", "total luciferase, z-score": -0.822, "activity call": "inactive"}
{"Target gene": "PTK2", "PubChem SID": "SID160715335", "total luciferase, z-score": 0.568, "activity call": "inactive"}
{"Target gene": "PTK2", "PubChem SID": "SID160715336", "total luciferase, z-score": -0.768, "activity call": "inactive"}
{"Target gene": "SCN9A", "PubChem SID": "SID160716412", "total luciferase, z-score": -1.53, "activity call": "inactive"}
{"Target gene": "SCN9A", "PubChem SID": "SID160716413", "total luciferase, z-score": 0.694, "activity call": "inactive"}
{"Target gene": "SCN9A", "PubChem SID": "SID160716414", "total luciferase, z-score": -0.087, "activity call": "inactive"}
{"Target gene": "MYBPH", "PubChem SID": "SID160777625", "total luciferase, z-score": -1.33, "activity call": "inactive"}
{"Target gene": "MYBPH", "PubChem SID": "SID160777626", "total luciferase, z-score": -0.299, "activity call": "inactive"}
{"Target gene": "MYBPH", "PubChem SID": "SID160777627", "total luciferase, z-score": 0.849, "activity call": "inactive"}
{"Target gene": "PARN", "PubChem SID": "SID160713833", "total luciferase, z-score": -0.947, "activity call": "inactive"}
{"Target gene": "PARN", "PubChem SID": "SID160713834", "total luciferase, z-score": -1.54, "activity call": "inactive"}
{"Target gene": "PARN", "PubChem SID": "SID160713835", "total luciferase, z-score": 0.36, "activity call": "inactive"}
{"Target gene": "DENND5B", "PubChem SID": "SID160759785", "total luciferase, z-score": 4.88, "activity call": "active"}
{"Target gene": "DENND5B", "PubChem SID": "SID160759787", "total luciferase, z-score": 3.32, "activity call": "active"}
{"Target gene": "DENND5B", "PubChem SID": "SID160759788", "total luciferase, z-score": 0.253, "activity call": "inactive"}
{"Target gene": "HPS3", "PubChem SID": "SID160752201", "total luciferase, z-score": 1.01, "activity call": "inactive"}
{"Target gene": "HPS3", "PubChem SID": "SID160752203", "total luciferase, z-score": -0.806, "activity call": "inactive"}
{"Target gene": "HPS3", "PubChem SID": "SID160752204", "total luciferase, z-score": 0.63, "activity call": "inactive"}
